In patent publication US8148095B2, “Methods for predicting psychotropic drugs which elicit weight gain” (The Johns Hopkins University, priority 2006, dated 2012):
At least one structure is not confirmed: it was looked up by name or label, or the drawing left a doubt.

Legend:
[1] = system: hypothalamic AMPK; test: Phospho-AMPK in hypothalamic slices by Western blotting; type: cell-based, mice
Excerpt: FIGS. 1A-1F. AAPDs activate AMPK in hypothalamic slices.
The slices were dispersed in artificial cerebrospinal fluid buffer.

[2] = system: AMPK; test: Phospho-AMPK in tissues of intact mice by Western blotting; type: in vivo
Procedure: FIGS. 2A-2D. AAPDs activate AMPK in intact animals. […] Hypothalami were removed and tissue lysates analyzed for phospho-AMPK or α2-AMPK activity. […] Different parts of brain were isolated and α2-AMPK activity was assayed. Bars represent the mean±SE of three independent lysates performed in triplicate. (* Student's t-test, n=5)
FIGS. 5A-5F. […] Cerebellum and liver were removed and phosphorylated AMPK (AMPK-P) detected by western blotting. Each lane represents tissue from individual mouse. […] Hypothalamus, cerebellum and liver were removed and phosphorylated AMPK (AMPK-P) detected by western blotting. Each lane represents a tissue from individual mouse. […] Hypothalamus and cerebellum were removed and phosphorylated AMPK (AMPK-P) detected by western blotting. Each lane represents a tissue from individual mouse. […] Hypothalami were removed and phosphorylated AMPK (AMPK-P) detected by western blotting. Each lane represents a tissue from an individual mouse. […] Hypothalami were removed and AMPK activity monitored as described in Material and Methods. Bars represent the mean±SE of three independent lysates performed in triplicate.
Experiments were done at age 8-10 weeks. All drugs were administered by i.p. injection. […] Procedures were approved by guidelines of the Johns Hopkins University School of Medicine Institutional Animal Care and Use Committee.
All drugs were purchased from Toronto Research Chemicals Inc. (Toronto, Canada). […] The drug was diluted with 8.5 ml saline solution, and the appropriate doses were administrated to mice. For control mice, the same solution was injected without a drug. For in vitro assays, drugs were dissolved in DMSO.

Question: With `CN1CCN(C2=Nc3cc(Cl)ccc3Nc3ccccc32)CC1` [Clozapine] as the compound, how does the “reversal of leptin-elicited reduction in hypothalamic phospho-AMPK” value ([1]; 50 nM clozapine, 30 min) read?
Answer: reverses

Question: And the “reversal of histamine-induced decrease of phospho-AMPK” value ([1]; 200 nM clozapine, 30 min)?
Answer: reversal

Question: And the “levels of phospho-AMPK” value ([1]; 500 nM drug, 30 min)?
Answer: markedly enhance

Question: And the “time at which increased AMPK phosphorylation is first observed” value ([1]; 500 mM (so in the source) drug, various times)?
Answer: 5 min

Question: And the “reversal of insulin-elicited reduction in hypothalamic phospho-AMPK” value ([1]; clozapine 50 mM (so in the source), 30 min)?
Answer: reverses

Question: And the “levels of phospho-AMPK in hypothalamus” value ([2]; clozapine 1 mg/kg i.p., 3 h)?
Answer: markedly stimulates

Question: What about the “phospho-AMPK levels in the cerebellum and liver” value ([2]; clozapine 1 mg/kg i.p., 3 h) of the same compound?
Answer: fails to increase

Question: And the “reversal of leptin reduction of hypothalamic phospho-AMPK” value ([2]; intact mice, leptin 3 mg/kg then clozapine 5 mg/kg at 1 h, sacrificed at 3 h)?
Answer: reverses
